According to US8680133B2, “Alkyl indole-3-carbinol-derived antitumor agents” (The Ohio State University Research Foundation, priority 2009, dated 2014):

Experiments:
Assay type in all cases: cell-based, human
HOP-62 = experiment: NCI60 screening, Non-Small Cell Lung Cancer, HOP-62
NCI-H522 = experiment: NCI60 screening, Non-Small Cell Lung Cancer, NCI-H522
MDA-MB-231/ATCC = experiment: NCI60 screening, Breast Cancer, MDA-MB-231/ATCC
MOLT-4 = experiment: NCI60 screening, Leukemia, MOLT-4
MCF7 = experiment: NCI60 screening, Breast Cancer, MCF7
MDA-MB-435 = experiment: NCI60 screening, Melanoma, MDA-MB-435
NCI-H23 = experiment: NCI60 screening, Non-Small Cell Lung Cancer, NCI-H23
SW-620 = experiment: NCI60 screening, Colon Cancer, SW-620
HOP-92 = experiment: NCI60 screening, Non-Small Cell Lung Cancer, HOP-92
DU-145 = experiment: NCI60 screening, Prostate Cancer, DU-145
HT29 = experiment: NCI60 screening, Colon Cancer, HT29
SNB-75 = experiment: NCI60 screening, CNS Cancer, SNB-75
NCI-H226 = experiment: NCI60 screening, Non-Small Cell Lung Cancer, NCI-H226
LOX IMVI = experiment: NCI60 screening, Melanoma, LOX IMVI
OVCAR-3 = experiment: NCI60 screening, Ovarian Cancer, OVCAR-3
RPMl-8226 = experiment: NCI60 screening, Leukemia, RPMl-8226
SK-OV-3 = experiment: NCI60 screening, Ovarian Cancer, SK-OV-3

Cc1ccc2c(c1)c(CO)cn2S(=O)(=O)c1ccc(Cl)c([N+](=O)[O-])c1 [OSU-A9M, [1-(4-chloro-3-nitro-benzenesulfonyl)-5-methyl-1H-indol-3-yl]-methanol]
Mean Optical Densities (HOP-62; Log10 Concentration −4.0): 0.003
Mean Optical Densities (HOP-62; Log10 Concentration −5.0): −0.005
Mean Optical Densities (HOP-62; Log10 Concentration −6.0): 1.177
Mean Optical Densities (HOP-62; Log10 Concentration −7.0): 1.159
Mean Optical Densities (HOP-62; Log10 Concentration −8.0): 1.185
Mean Optical Densities (NCI-H522; Log10 Concentration −4.0): 0.012
Mean Optical Densities (NCI-H522; Log10 Concentration −5.0): 0.013
Mean Optical Densities (NCI-H522; Log10 Concentration −6.0): 0.126
Mean Optical Densities (NCI-H522; Log10 Concentration −7.0): 0.505
Mean Optical Densities (NCI-H522; Log10 Concentration −8.0): 0.523
Mean Optical Densities (MDA-MB-231/ATCC; Log10 Concentration −4.0): 0.052
Mean Optical Densities (MDA-MB-231/ATCC; Log10 Concentration −5.0): 0.038
Mean Optical Densities (MDA-MB-231/ATCC; Log10 Concentration −6.0): 0.636
Mean Optical Densities (MDA-MB-231/ATCC; Log10 Concentration −7.0): 0.723
Mean Optical Densities (MDA-MB-231/ATCC; Log10 Concentration −8.0): 0.761
Mean Optical Densities (MOLT-4; Log10 Concentration −4.0): 0.172
Mean Optical Densities (MOLT-4; Log10 Concentration −5.0): 0.263
Mean Optical Densities (MOLT-4; Log10 Concentration −6.0): 0.733
Mean Optical Densities (MOLT-4; Log10 Concentration −7.0): 1.635
Mean Optical Densities (MOLT-4; Log10 Concentration −8.0): 1.731
Mean Optical Densities (MCF7; Log10 Concentration −4.0): 0.040
Mean Optical Densities (MCF7; Log10 Concentration −5.0): 0.057
Mean Optical Densities (MCF7; Log10 Concentration −6.0): 0.651
Mean Optical Densities (MCF7; Log10 Concentration −7.0): 1.149
Mean Optical Densities (MCF7; Log10 Concentration −8.0): 1.144
Mean Optical Densities (MDA-MB-435; Log10 Concentration −4.0): 0.039
Mean Optical Densities (MDA-MB-435; Log10 Concentration −5.0): 0.031
Mean Optical Densities (MDA-MB-435; Log10 Concentration −6.0): 1.691
Mean Optical Densities (MDA-MB-435; Log10 Concentration −7.0): 1.761
Mean Optical Densities (MDA-MB-435; Log10 Concentration −8.0): 1.881
Mean Optical Densities (NCI-H23; Log10 Concentration −4.0): 0.016
Mean Optical Densities (NCI-H23; Log10 Concentration −5.0): 0.009
Mean Optical Densities (NCI-H23; Log10 Concentration −6.0): 0.788
Mean Optical Densities (NCI-H23; Log10 Concentration −7.0): 0.826
Mean Optical Densities (NCI-H23; Log10 Concentration −8.0): 0.836
Mean Optical Densities (SW-620; Log10 Concentration −4.0): 0.001
Mean Optical Densities (SW-620; Log10 Concentration −5.0): −0.010
Mean Optical Densities (SW-620; Log10 Concentration −6.0): 0.777
Mean Optical Densities (SW-620; Log10 Concentration −7.0): 1.011
Mean Optical Densities (SW-620; Log10 Concentration −8.0): 1.064
Mean Optical Densities (HOP-92; Log10 Concentration −4.0): 0.029
Mean Optical Densities (HOP-92; Log10 Concentration −5.0): 0.068
Mean Optical Densities (HOP-92; Log10 Concentration −6.0): 1.276
Mean Optical Densities (HOP-92; Log10 Concentration −7.0): 1.310
Mean Optical Densities (HOP-92; Log10 Concentration −8.0): 1.383
Mean Optical Densities (DU-145; Log10 Concentration −4.0): −0.027
Mean Optical Densities (DU-145; Log10 Concentration −5.0): −0.024
Mean Optical Densities (DU-145; Log10 Concentration −6.0): 1.006
Mean Optical Densities (DU-145; Log10 Concentration −7.0): 1.018
Mean Optical Densities (DU-145; Log10 Concentration −8.0): 1.078
Mean Optical Densities (HT29; Log10 Concentration −4.0): −0.029
Mean Optical Densities (HT29; Log10 Concentration −5.0): −0.034
Mean Optical Densities (HT29; Log10 Concentration −6.0): 0.294
Mean Optical Densities (HT29; Log10 Concentration −7.0): 0.772
Mean Optical Densities (HT29; Log10 Concentration −8.0): 0.756
Mean Optical Densities (SNB-75; Log10 Concentration −4.0): −0.031
Mean Optical Densities (SNB-75; Log10 Concentration −5.0): −0.038
Mean Optical Densities (SNB-75; Log10 Concentration −6.0): 1.082
Mean Optical Densities (SNB-75; Log10 Concentration −7.0): 1.123
Mean Optical Densities (SNB-75; Log10 Concentration −8.0): 1.252
Mean Optical Densities (NCI-H226; Log10 Concentration −4.0): 0.301
Mean Optical Densities (NCI-H226; Log10 Concentration −5.0): 0.478
Mean Optical Densities (NCI-H226; Log10 Concentration −6.0): 1.311
Mean Optical Densities (NCI-H226; Log10 Concentration −7.0): 1.704
Mean Optical Densities (NCI-H226; Log10 Concentration −8.0): 1.689
Mean Optical Densities (LOX IMVI; Log10 Concentration −4.0): −0.025
Mean Optical Densities (LOX IMVI; Log10 Concentration −5.0): −0.017
Mean Optical Densities (LOX IMVI; Log10 Concentration −6.0): 0.016
Mean Optical Densities (LOX IMVI; Log10 Concentration −7.0): 0.356
Mean Optical Densities (LOX IMVI; Log10 Concentration −8.0): 0.397
Mean Optical Densities (OVCAR-3; Log10 Concentration −4.0): −0.020
Mean Optical Densities (OVCAR-3; Log10 Concentration −5.0): −0.013
Mean Optical Densities (OVCAR-3; Log10 Concentration −6.0): 0.092
Mean Optical Densities (OVCAR-3; Log10 Concentration −7.0): 0.492
Mean Optical Densities (OVCAR-3; Log10 Concentration −8.0): 0.485
Mean Optical Densities (RPMl-8226; Log10 Concentration −4.0): 0.288
Mean Optical Densities (RPMl-8226; Log10 Concentration −5.0): 0.400
Mean Optical Densities (RPMl-8226; Log10 Concentration −6.0): 1.985
Mean Optical Densities (RPMl-8226; Log10 Concentration −7.0): 2.108
Mean Optical Densities (RPMl-8226; Log10 Concentration −8.0): 2.226
Mean Optical Densities (SK-OV-3; Log10 Concentration −4.0): −0.013
Mean Optical Densities (SK-OV-3; Log10 Concentration −5.0): 0.012
